For 58 molecules, cell number change and AC50 results are on record in PubChem BioAssay AID2685 (National Center for Advancing Translational Sciences (NCATS), 2010).

This assay can be described thus: qHTS Assay for Lipid Storage Modulators in Drosophila S3 Cells.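 For cell number change: cells counted by Cell Tracker Red CMTPX staining in the red channel.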 To be noted: BODIPY lipid droplet fluorescence, 18-24 h; for cell number change: measured here: cell count max response, cells fed with added oleic acid. In outline: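 Laser-scanning cytometry quantifies lipid droplet accumulation (500–530 nm total intensity; droplet/cell object ratio) in oleic acid-fed (400 uM added) Drosophila S3 cells treated with a concentration series. 20 uM Triacsin C defined 100% inhibition.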
Background: Quantitative high-throughput screening tests each substance at several concentrations.

Where [1] appears, read: measured here: cell number channel AC50, cells fed with added oleic acid.
[2] abbreviates: measured here: lipid fluorescence (Fed channel) AC50, cells fed with added oleic acid.

Each structure is given as a SMILES string. Some of the results follow. Further columns of the screen follow, without active or inactive calls. The list favours compounds with an active or inconclusive main result. Words in brackets tell the shape of the fitted curve; partial curves, single points and poor fits give uncertain potencies.

On to `CCOc1ccc2nc(SCC(=O)Nc3ccc4c(c3)OCO4)sc2c1`, for which the cell number change came out at 14.4%.
What is called AC50 is the concentration giving half of the maximal activity seen. Read a low AC50 as greater potency. `COC(=O)c1ccc(NC(=O)c2ccc(NC(=O)C3CCCO3)cc2)cc1` (stereo not given): the cell number change was found to be 59.3%. Also, the AC50 under setting [1] is 16.4 µM [rising, single point]. Also, under setting [2], the AC50 is 18.4 µM [rising, partial curve].
As for `O=C(c1ccco1)N1CCN(Cc2ccc(F)cc2Cl)CC1`, under setting [2], the AC50 is 2.91 µM [falling, single point].
With `COc1cccc(NC(=O)CCN2C(=O)c3ccccc3S2(=O)=O)c1`, under setting [2], the AC50 was 0.731 µM [rising, full curve, poor fit].
Take `Cc1ccccc1Cn1cc(NS(=O)(=O)c2cn(C)nc2C)cn1`: the cell number change was 17.6%. Also, the AC50 under setting [2] is 2.91 µM [rising, full curve].
For `CN(c1ccccc1)S(=O)(=O)c1cc(C(=O)OCC(=O)N2CCN(C(=O)c3ccco3)CC2)ccc1Cl`, the cell number change was -114%.
In the case of `Cc1nc2sc(C(c3ccc(Cl)cc3)N3CCN(C(=O)c4ccco4)CC3)c(O)n2n1` (stereo not given), the cell number change was 4.19%. Also, under setting [2], the AC50 was 29.1 µM [falling, single point].
Regarding `COc1ccc(-c2cn(Cc3ccc(C(N)=O)cc3)c(CCN)n2)cc1`, the cell number change worked out at 10.6%. In addition, under setting [2], the AC50 was 0.461 µM [rising, full curve, poor fit].
As for `Cn1c(=O)n(C)c2cc(S(=O)(=O)Nc3ccccc3O)ccc21`, the cell number change was found to be 15.9%. Also, the AC50 under setting [2] was 6.51 µM [falling, single point].
With `CCC(=O)N1CCN(c2nc3ccccc3s2)CC1`, the cell number change came out at 18.9%. Moreover, the AC50 under setting [2] is 23.1 µM [rising, partial curve].
Take `O=C(Nc1ccc(F)cc1)/C(Cl)=C/c1ccccc1`: the cell number change was -39.5%. Besides, under setting [2], the AC50 is 6.51 µM [falling, single point].
As for `CS(=O)(=O)c1cccc(C(=O)Nc2ccc(S(=O)(=O)N3CCCCC3)cc2)c1`, the cell number change came to 55.8%. Also, the AC50 under setting [1] is 14.6 µM [rising, partial curve].
Turning to `CCCCN(C(=O)c1ccc(N2CCCC2=O)cc1)c1c(N)n(Cc2ccccc2)c(=O)[nH]c1=O`, the cell number change was -5.16%. For the same molecule, the AC50 under setting [2] was 0.58 µM [falling, full curve].
On to `CCC(C)(C)C1CCc2c(sc(N)c2C(N)=O)C1` (stereo not given), for which the cell number change is -19%. For the same molecule, the AC50 under setting [2] is 13 µM [falling, partial curve, poor fit].
For `Cc1nc2c3ccccc3n(CCN3CCCCC3)c2s1`, the cell number change came to 31.3%. The AC50 under setting [1] is 16.4 µM [rising, single point].
As to `COc1cc2ccccc2cc1C(=O)N(CCN(C)C)c1nc2c(C)cccc2s1`, the cell number change is 37%.
For the molecule `Cc1ccc(S(=O)(=O)N(C)c2ccccc2C(=O)Nc2ccc(F)cc2F)cc1`, the cell number change is -12.9%. The AC50 under setting [2] was 29.1 µM [falling, single point].
`C=CCOc1ccc(CNc2nn[nH]n2)cc1OC`: the cell number change is 39%. The AC50 under setting [1] was 16.4 µM [rising, partial curve, poor fit].
As for `Nc1nc2ccc(C(=O)NC3CCCCC3)cc2s1`, the cell number change is -2.11%. Besides, the AC50 under setting [1] is 6.51 µM [rising, single point]. Also, the AC50 under setting [2] is 0.517 µM [falling, single point].
Take `NC(=O)N/N=C/c1c(O)ccc2oc3c(c12)CCCC3`: the cell number change worked out at 15.9%. The AC50 under setting [2] was 7.31 µM [rising, partial curve].
Consider `CC(C)c1ccc(OCC(O)CN2CCCC2)cc1` (stereo not given), for which the AC50 under setting [2] is 29.1 µM [rising, single point].
`O=C(NC(=S)NNC(=O)c1ccco1)c1ccc(Br)cc1`: the cell number change is -2.14%. Also, the AC50 under setting [2] is 0.00461 µM [falling, full curve, poor fit].
For `C=C(C)C1Cc2c(C)nn(-c3cccc4ccccc34)c2C1` (stereo not given), under setting [1], the AC50 was 0.731 µM [rising, partial curve, poor fit].
For `O=C(CN1CCCCC1)Nc1cc(Cl)ccc1Cl`, the cell number change is -47.4%. The AC50 under setting [1] is 2.31 µM [falling, full curve]. Moreover, the concentration at half-maximal activity (AC50) under setting [2] was 0.92 µM [falling, full curve].
As to `O=C(N/N=C/c1ccccn1)c1cc(-c2ccc(Cl)s2)[nH]n1`, the cell number change was 20%.
Consider `O=C(c1ccc(Br)o1)N(c1ccc(Br)cc1)C1C=CS(=O)(=O)C1` (stereo not given), for which the AC50 runs as follows: under setting [1], 2.59 µM [rising, partial curve]; under setting [2], 0.164 µM [rising, full curve].
For `CCOC(=O)c1c(C)nc2ccc(Cl)cc2c1-c1ccccc1`, the cell number change is 43.4%. Further, the AC50 under setting [1] is 7.31 µM [rising, partial curve, poor fit]. Besides, the AC50 under setting [2] is 7.31 µM [rising, partial curve].
For the molecule `COC(=O)c1c(NC(=O)CSc2nnc(-c3ccco3)n2Cc2ccccc2)sc(C)c1C`, the cell number change came out at 81.1%. Besides, under setting [1], the AC50 is 0.411 µM [rising, full curve].
Consider `C[C@]12C(=O)N(c3ccc(Cl)cc3)C(=O)N1[C@H]1c3ccccc3OC[C@@H]1[C@H]2c1ccccc1`, for which the cell number change is 24.9%. The AC50 under setting [2] was 0.0231 µM [rising, full curve].
As for `Clc1ccc(CN(Cc2ccccc2)C(c2cccs2)c2nnnn2C2CCCC2)cc1` (stereo not given), the cell number change is -50.2%. For the same molecule, the AC50 under setting [1] is 16.4 µM [falling, partial curve, poor fit]. Also, the AC50 under setting [2] is 23.1 µM [falling, single point].
For the molecule `CCOc1ccc(C(=O)NCc2ccco2)cc1`, the cell number change amounted to 57%. In addition, the AC50 under setting [1] is 16.4 µM [rising, partial curve]. The AC50 under setting [2] is 20.6 µM [rising, partial curve].
`Cc1ccc(S(=O)(=O)NCC(=O)N(CC(=O)NCc2ccco2)Cc2ccc(F)cc2)cc1`: the cell number change is -32.9%. For the same molecule, the AC50 under setting [1] was 1.64 µM [falling, full curve, poor fit].
As to `CCOC(=O)c1ccccc1NC(=O)CCNC(=O)Cn1cnc2ccccc2c1=O`, the cell number change was -11.8%. The AC50 under setting [1] was 0.146 µM [falling, full curve, poor fit]. Moreover, under setting [2], the AC50 was 7.31 µM [rising, partial curve].
With `COc1ccc(NS(=O)(=O)c2cccc(C(=O)N3CCCCCC3)c2)cc1`, the cell number change was -50%. For the same molecule, the AC50 under setting [1] was 6.51 µM [rising, partial curve, poor fit].
Regarding `COc1ccc(/C=C/C(=O)NC(=S)N2CCCC(C(N)=O)C2)cc1` (stereo not given), the cell number change came out at 9.91%.
With `O=C(Nc1ccc(Br)cc1)c1ccc(N2C(=O)C3CC=C(Cl)CC3C2=O)cc1` (stereo not given), the cell number change came to 19.5%. Moreover, the AC50 under setting [1] is 0.00517 µM [falling, full curve, poor fit].
For `CCCOc1ccc(CC(=O)NNC(=S)Nc2ccccc2)cc1Br`, the cell number change was -38.1%. The half-maximal activity concentration (AC50) under setting [1] was 9.2 µM [falling, partial curve, poor fit].
Turning to `Cc1csc(CNC(=O)c2ccc(OC3CCN(CCc4ccccc4)CC3)cc2)n1`, the cell number change is -2.06%.
For `COC(=O)c1cc(N=Nc2c(C)[nH]c3ccccc23)cc(C(=O)OC)c1`, the cell number change worked out at 3.09%. The concentration at half-maximal activity (AC50) under setting [2] is 1.84 µM [rising, partial curve, poor fit].
With `COc1ccccc1-c1cc(C(=O)Nc2cc(C)on2)no1`, the cell number change is 18.3%. Also, the AC50 under setting [2] is 29.1 µM [rising, single point].
As to `COc1cc2c(C(=O)NCc3ccccn3)cn(C)c(=O)c2cc1OC`, the cell number change worked out at 13.3%. For the same molecule, the AC50 under setting [2] was 0.92 µM [rising, full curve, poor fit].
On to `CCc1ccccc1NC(=S)N(CCN1CCOCC1)Cc1ccccc1F`, for which, under setting [1], the AC50 was 0.146 µM [rising, single point].
As for `O=C(CN1C(=O)C2CCCCN2C(=O)c2ccccc21)N1CCCc2ccccc21` (stereo not given), the cell number change came out at 87.9%. Further, under setting [1], the AC50 is 11.6 µM [rising, partial curve]. For the same molecule, the half-maximal activity concentration (AC50) under setting [2] was 0.164 µM [rising, full curve, poor fit].
Turning to `CC(=O)Nc1ccc(NS(=O)(=O)c2cccc3nonc23)cc1`, the cell number change stood at 8.87%.
Take `COc1ccc(Cl)cc1NC(=O)C(=O)NC1CCCCCC1`: the cell number change is -40.4%. Moreover, the AC50 under setting [1] is 3.66 µM [falling, full curve, poor fit]. Moreover, under setting [2], the AC50 was 23.1 µM [falling, partial curve].
Take `Cn1nccc1C(=O)NC1CCCc2c1cnn2-c1ccccc1F` (stereo not given): the cell number change was -37.4%. Under setting [1], the AC50 is 1.16 µM [falling, full curve, poor fit].
`Cc1ccc(NC(=O)N2CCN(C/C=C/c3ccccc3)CC2)cc1`: the cell number change was determined as 32.4%.
Same read-out and setting: with `Cc1cc(C)cc(NC(=O)NNC(=O)c2cc3occc3[nH]2)c1` the figure was 28.6%.
Turning to `O=C(Nc1cccc(S(=O)(=O)N2CCCCC2)c1)C1CC(=O)N(Cc2ccccc2)C1` (stereo not given), the cell number change was -9.02%. For the same molecule, the AC50 under setting [2] was 23.1 µM [falling, partial curve].
As to `Cc1cc(N/N=C2\CC(C)CC(C)(C)C2)nc2ccccc12` (stereo not given), the cell number change was found to be 7.69%. Besides, the AC50 under setting [2] is 6.51 µM [rising, single point].
For the molecule `C=CCNc1nc(-c2ccc(Cl)cc2)cs1`, the cell number change was -38.8%. Also, under setting [1], the AC50 was 29.1 µM [falling, single point].
As for `CC(=O)c1ccc(NC(=O)c2cc(=O)[nH]c3ccccc23)cc1`, the cell number change came to 39.3%. The concentration at half-maximal activity (AC50) under setting [1] is 3.26 µM [rising, partial curve].
Take `O=C1C=CC(=O)N1Nc1ccc(Br)cc1`: the cell number change was found to be 0.494%. The AC50 under setting [1] was 0.651 µM [falling, single point]. Also, the AC50 under setting [2] was 1.84 µM [falling, partial curve].
For `CCN(CC)C(=O)CN(c1cc2c(cc1OC)oc1ccccc12)S(=O)(=O)c1ccc(C)cc1`, the cell number change was -3.31%. In addition, the AC50 under setting [2] was 2.91 µM [rising, full curve, poor fit].
With `CC(=Nc1ccc(C)c(C)c1)C1=C(O)CCC1=O`, the cell number change is 6.17%. Further, the AC50 under setting [2] was 2.91 µM [falling, partial curve, poor fit].
Regarding `C=C1C(=O)C=C2CN(C(=O)c3ccccc3)[C@@](Cc3ccc(F)cc3)(C(=O)OC)[C@@H]12`, the cell number change is -89.7%. Moreover, the AC50 under setting [1] was 20.6 µM [falling, partial curve]. The AC50 under setting [2] is 2.59 µM [falling, full curve].
For the molecule `CCCn1c(=O)c2ccccc2n2c(SCC(=O)NCc3cccs3)nnc12`, the cell number change was 63.2%. The AC50 under setting [1] was 14.6 µM [rising, partial curve]. The AC50 under setting [2] is 6.51 µM [rising, partial curve, poor fit].
With `CCN1CCCc2cc(CN(CCN3CCOCC3)C(=S)Nc3ccc(OC)c(Cl)c3)ccc21`, the cell number change was 1.68%. For the same molecule, under setting [1], the AC50 was 0.0103 µM [rising, full curve, poor fit]. Further, under setting [2], the AC50 was 0.517 µM [rising, partial curve, poor fit].
